Experimental data taken from patent US20210179666A1, “CYCLIC PEPTIDES AND METHODS OF USE THEREOF” (Regents of the University of Minnesota, priority 2019, published 2021).
Not every detail of the peptide structures is certain; ends, links or a residue may be inferred.

Protein sequences, listed by entry. Tags and fused reporters are not part of them. Lines headed by an entry give the natural chain unless they say otherwise; changes in a name come on top.
UniProt P41149: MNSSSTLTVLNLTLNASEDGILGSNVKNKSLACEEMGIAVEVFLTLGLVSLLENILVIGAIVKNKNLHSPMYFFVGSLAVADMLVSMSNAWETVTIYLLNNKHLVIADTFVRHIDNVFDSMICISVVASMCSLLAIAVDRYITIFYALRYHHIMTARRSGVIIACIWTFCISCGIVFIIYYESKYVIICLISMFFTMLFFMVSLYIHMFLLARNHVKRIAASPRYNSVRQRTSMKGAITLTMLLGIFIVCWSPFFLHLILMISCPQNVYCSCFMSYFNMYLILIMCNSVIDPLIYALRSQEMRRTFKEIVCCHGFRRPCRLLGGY

Target: mMC5R (Mus musculus, UniProt P41149)
Settings: Example 2

Row | Compound | mMC5R pharmacology observed (Partial Agonist / Inverse Agonist)
1 | C[C@@H]1NC(=O)[C@H](CN)NC(=O)[C@H](Cc2ccccc2)NC(=O)[C@H](Cc2ccccc2)NC(=O)[C@H](CCCNC(=N)N)NC(=O)[C@@H]2CCCN2C(=O)[C@H]2CCCN2C(=O)CN(Cc2ccccc2)C1=O [MDE8-108-7c, c[Pro-Arg-Phe-Phe-Dap-Ala-NPhe-DPro]] | Inverse
2 | C[C@@H]1NC(=O)CN(CCN)C(=O)[C@H](Cc2ccccc2)NC(=O)[C@H](Cc2ccccc2)NC(=O)[C@H](CCCNC(=N)N)NC(=O)[C@@H]2CCCN2C(=O)[C@H]2CCCN2C(=O)[C@H](Cc2ccccc2)NC1=O [MDE9-111c, c[Pro-Arg-Phe-Phe-NDab-Ala-Phe-DPro]] | Inverse
